No constants are given. Whether binding was seen depends on the method and setting. In cells and extracts the contact can be indirect. Some entries that bind do so weakly or less than the wild type.

Protein sequences, listed by entry. Tags and fused reporters are not part of them.
UniProt P35222: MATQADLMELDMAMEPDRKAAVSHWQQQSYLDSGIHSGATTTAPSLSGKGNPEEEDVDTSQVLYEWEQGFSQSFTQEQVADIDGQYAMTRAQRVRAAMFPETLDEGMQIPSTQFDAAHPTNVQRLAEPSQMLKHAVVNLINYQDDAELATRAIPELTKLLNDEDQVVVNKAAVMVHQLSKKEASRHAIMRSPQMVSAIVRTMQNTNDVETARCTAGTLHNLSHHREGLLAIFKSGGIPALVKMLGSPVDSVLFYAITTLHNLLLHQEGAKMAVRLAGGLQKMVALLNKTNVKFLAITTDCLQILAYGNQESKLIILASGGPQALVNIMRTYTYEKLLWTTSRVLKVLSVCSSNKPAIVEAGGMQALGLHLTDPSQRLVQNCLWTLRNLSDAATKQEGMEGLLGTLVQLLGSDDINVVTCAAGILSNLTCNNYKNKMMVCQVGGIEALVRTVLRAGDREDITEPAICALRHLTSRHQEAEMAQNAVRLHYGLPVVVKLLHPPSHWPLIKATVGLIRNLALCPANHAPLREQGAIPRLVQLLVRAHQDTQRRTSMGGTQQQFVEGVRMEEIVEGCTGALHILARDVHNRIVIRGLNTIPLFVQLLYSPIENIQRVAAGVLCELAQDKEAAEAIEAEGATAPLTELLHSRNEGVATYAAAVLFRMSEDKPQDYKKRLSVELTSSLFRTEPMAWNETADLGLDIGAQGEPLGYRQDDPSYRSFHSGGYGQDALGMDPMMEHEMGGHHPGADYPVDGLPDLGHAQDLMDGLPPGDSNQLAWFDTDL
UniProt Q9UJU2: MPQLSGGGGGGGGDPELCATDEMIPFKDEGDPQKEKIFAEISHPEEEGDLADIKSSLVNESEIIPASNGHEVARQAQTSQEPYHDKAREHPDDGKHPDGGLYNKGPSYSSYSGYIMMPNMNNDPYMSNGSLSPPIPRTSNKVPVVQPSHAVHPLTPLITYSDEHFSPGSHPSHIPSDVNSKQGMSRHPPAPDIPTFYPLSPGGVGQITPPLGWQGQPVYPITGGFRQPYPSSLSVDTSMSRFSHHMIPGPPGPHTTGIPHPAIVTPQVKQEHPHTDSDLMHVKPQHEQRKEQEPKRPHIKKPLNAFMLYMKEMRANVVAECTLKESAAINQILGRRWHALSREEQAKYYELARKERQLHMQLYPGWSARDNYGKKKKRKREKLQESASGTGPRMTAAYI

In the test the target is β-catenin (human (endogenous in SW480)) (UniProt P35222). As to the kind of experiment: co-IP; SW480 cells, untreated or treated with EA (50 µM or increasing amounts) for 16 h; lysates (20 mM Tris-HCl pH 8.0, 10% glycerol, 5 mM MgCl2, 0.15 M KCl, 0.1% NP-40) incubated overnight at 4°C with agarose beads linked to anti-β-catenin monoclonal antibody; immunoblot. On the technique in general: In western blotting, separated proteins are transferred to a membrane and probed.

For LEF-1 (from UniProt Q9UJU2 1-399), the binding result is recorded as “binds”.
